Reference: the supplement of paper PMC12823440, “Inhibitors supercharge kinase turnover through native proteolytic circuits” (Nature, 2025)
Structures can show the parent of a compound that is named as a salt. This is one part of the list. Hit calls seldom repeat between salt and free forms of one compound.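 Kinases, fused to nanoluciferase, were expressed in K562 cells; luminescence was measured every 4 h from 2 to 18 h as percent of control (DMSO = 100%, positive control = 0%). A time point is decreased if signal falls significantly (2 sigma). Hits were called by the authors by a rule that is not shown; the count of time points alone does not decide it.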

Sequences of proteins named here, by UniProt entry; tags and fusion partners are left off. A change or cut given only in a name is not applied to a line headed by its entry.
UniProt Q16288, whole entry, looked up: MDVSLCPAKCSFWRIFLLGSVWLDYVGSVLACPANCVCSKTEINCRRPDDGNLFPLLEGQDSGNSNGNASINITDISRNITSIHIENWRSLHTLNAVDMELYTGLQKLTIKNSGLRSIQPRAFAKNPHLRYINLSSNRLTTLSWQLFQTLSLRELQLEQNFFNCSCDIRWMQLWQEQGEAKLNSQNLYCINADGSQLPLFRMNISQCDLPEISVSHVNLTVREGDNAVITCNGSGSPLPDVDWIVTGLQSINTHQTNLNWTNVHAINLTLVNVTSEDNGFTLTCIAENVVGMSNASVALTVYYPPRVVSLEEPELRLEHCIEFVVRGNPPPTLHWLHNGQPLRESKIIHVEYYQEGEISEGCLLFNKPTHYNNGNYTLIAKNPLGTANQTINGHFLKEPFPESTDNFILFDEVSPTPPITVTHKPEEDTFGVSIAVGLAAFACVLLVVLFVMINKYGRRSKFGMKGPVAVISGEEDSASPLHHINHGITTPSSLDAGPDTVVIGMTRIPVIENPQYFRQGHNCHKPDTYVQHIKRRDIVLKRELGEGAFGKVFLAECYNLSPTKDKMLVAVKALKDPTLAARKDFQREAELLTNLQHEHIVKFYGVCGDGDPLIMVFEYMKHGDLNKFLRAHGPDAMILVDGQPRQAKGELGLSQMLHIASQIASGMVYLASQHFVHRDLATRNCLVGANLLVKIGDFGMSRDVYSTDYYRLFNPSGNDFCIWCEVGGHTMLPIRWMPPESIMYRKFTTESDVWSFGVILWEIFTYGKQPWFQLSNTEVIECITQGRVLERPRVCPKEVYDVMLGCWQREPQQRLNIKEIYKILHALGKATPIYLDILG
UniProt Q96KB5: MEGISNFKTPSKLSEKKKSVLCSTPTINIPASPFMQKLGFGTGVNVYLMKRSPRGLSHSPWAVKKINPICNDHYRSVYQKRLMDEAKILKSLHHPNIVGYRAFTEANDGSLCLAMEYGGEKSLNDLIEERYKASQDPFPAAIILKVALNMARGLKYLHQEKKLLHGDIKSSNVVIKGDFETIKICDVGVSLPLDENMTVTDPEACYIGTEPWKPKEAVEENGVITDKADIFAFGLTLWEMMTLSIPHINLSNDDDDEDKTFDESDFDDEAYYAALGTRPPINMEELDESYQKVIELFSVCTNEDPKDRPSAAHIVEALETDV
UniProt P09619, whole entry: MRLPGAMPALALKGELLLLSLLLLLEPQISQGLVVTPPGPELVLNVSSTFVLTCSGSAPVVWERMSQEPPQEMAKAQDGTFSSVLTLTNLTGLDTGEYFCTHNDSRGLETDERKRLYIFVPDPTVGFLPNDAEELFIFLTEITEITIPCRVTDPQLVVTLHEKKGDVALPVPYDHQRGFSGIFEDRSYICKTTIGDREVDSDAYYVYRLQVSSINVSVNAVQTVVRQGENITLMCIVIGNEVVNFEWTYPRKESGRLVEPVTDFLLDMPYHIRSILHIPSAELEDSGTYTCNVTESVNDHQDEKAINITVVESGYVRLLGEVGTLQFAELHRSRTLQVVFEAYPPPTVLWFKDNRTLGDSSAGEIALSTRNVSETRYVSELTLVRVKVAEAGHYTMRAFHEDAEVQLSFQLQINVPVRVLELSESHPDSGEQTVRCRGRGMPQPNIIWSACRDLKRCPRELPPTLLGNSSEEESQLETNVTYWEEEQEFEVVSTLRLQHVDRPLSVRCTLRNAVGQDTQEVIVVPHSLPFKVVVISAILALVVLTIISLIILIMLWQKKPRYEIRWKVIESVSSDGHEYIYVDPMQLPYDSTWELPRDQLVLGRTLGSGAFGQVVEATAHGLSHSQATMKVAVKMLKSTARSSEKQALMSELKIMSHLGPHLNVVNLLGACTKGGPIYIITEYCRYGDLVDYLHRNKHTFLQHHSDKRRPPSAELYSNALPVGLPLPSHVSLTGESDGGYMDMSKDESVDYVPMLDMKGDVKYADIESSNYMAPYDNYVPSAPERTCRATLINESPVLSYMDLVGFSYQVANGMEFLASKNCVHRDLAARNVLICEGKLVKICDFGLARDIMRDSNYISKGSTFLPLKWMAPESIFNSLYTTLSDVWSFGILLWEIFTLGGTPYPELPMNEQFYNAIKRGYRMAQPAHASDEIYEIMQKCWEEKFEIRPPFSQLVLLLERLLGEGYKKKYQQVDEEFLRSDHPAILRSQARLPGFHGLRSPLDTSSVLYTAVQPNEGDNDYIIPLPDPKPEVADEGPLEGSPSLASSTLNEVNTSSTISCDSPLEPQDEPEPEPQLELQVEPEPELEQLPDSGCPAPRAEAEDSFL
UniProt Q15118, whole entry, looked up: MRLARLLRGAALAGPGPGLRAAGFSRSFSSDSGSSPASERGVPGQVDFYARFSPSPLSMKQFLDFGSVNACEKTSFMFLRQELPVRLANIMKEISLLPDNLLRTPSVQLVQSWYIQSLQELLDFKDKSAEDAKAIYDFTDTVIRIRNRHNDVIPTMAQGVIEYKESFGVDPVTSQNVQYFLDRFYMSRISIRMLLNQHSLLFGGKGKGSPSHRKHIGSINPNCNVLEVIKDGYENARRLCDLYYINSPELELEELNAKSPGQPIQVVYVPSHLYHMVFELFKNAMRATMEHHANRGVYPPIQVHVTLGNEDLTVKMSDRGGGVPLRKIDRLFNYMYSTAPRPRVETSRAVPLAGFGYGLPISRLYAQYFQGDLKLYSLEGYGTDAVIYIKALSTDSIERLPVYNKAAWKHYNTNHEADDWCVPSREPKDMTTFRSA
UniProt O15530: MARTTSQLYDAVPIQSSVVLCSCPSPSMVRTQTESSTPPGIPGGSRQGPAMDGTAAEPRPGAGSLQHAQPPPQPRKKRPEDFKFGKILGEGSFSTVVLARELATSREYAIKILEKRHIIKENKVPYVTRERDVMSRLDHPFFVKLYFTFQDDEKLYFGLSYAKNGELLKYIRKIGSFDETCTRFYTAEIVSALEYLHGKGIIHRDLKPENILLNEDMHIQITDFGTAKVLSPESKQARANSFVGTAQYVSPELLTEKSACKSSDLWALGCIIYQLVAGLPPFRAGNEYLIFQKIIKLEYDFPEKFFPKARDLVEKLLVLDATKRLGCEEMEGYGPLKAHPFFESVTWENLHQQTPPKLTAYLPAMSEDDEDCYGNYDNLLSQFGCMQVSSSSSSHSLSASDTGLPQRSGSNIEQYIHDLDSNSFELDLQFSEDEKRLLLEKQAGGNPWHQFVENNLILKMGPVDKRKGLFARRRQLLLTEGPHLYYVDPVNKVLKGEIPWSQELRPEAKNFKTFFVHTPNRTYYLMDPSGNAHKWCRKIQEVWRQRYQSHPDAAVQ
UniProt P42356, whole entry, looked up: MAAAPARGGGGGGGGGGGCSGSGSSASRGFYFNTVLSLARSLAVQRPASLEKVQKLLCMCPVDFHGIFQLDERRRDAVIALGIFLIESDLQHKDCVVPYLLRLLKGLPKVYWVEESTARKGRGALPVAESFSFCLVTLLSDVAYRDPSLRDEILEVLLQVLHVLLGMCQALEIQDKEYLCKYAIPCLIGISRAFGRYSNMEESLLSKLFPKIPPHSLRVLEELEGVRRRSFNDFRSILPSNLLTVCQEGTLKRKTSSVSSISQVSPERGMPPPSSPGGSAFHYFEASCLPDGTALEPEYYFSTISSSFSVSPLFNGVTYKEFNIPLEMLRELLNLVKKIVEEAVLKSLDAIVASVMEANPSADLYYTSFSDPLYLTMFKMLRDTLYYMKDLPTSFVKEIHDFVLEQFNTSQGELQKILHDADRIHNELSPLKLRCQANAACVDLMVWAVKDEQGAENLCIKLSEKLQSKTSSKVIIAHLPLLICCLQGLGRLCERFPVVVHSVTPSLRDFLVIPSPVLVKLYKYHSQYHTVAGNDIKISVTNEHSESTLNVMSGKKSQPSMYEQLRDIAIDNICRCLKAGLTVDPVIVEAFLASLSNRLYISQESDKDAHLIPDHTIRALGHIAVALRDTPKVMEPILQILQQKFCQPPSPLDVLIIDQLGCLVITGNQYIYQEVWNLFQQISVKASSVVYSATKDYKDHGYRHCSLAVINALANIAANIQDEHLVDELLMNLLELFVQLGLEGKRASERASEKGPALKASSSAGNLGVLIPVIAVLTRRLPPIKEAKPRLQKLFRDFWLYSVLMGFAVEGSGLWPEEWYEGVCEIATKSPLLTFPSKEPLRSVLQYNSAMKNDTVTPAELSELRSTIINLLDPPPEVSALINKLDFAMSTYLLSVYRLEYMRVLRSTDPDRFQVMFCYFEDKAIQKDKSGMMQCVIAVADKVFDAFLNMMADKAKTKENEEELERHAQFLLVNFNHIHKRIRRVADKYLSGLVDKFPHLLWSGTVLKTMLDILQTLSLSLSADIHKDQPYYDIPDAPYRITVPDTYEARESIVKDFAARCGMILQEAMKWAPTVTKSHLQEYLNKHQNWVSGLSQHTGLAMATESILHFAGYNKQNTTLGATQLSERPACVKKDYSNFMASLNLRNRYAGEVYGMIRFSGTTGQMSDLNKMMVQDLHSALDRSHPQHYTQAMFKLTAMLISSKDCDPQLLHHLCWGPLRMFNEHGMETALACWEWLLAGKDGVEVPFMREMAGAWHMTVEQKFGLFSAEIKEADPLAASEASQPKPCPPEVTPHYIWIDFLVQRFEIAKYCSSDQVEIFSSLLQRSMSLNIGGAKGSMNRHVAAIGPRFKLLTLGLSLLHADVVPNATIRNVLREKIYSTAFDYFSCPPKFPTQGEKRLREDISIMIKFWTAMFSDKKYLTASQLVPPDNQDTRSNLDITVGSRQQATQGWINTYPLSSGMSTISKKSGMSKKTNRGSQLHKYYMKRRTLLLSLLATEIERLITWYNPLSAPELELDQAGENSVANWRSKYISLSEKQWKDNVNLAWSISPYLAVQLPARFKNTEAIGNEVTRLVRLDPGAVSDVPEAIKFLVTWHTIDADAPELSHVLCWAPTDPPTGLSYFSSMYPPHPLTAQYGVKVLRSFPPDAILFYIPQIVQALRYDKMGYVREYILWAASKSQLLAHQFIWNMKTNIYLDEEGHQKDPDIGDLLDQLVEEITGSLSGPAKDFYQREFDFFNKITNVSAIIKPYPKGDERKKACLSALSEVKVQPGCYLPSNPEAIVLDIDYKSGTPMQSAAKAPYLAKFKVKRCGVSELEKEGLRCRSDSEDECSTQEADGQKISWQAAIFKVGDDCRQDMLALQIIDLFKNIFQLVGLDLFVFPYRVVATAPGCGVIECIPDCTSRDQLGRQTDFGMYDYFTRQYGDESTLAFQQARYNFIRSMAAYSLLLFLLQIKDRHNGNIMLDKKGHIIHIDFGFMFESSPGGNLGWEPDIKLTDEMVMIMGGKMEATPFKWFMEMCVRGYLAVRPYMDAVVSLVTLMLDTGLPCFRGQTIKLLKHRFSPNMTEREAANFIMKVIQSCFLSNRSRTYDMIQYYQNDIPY
UniProt Q9UBF8: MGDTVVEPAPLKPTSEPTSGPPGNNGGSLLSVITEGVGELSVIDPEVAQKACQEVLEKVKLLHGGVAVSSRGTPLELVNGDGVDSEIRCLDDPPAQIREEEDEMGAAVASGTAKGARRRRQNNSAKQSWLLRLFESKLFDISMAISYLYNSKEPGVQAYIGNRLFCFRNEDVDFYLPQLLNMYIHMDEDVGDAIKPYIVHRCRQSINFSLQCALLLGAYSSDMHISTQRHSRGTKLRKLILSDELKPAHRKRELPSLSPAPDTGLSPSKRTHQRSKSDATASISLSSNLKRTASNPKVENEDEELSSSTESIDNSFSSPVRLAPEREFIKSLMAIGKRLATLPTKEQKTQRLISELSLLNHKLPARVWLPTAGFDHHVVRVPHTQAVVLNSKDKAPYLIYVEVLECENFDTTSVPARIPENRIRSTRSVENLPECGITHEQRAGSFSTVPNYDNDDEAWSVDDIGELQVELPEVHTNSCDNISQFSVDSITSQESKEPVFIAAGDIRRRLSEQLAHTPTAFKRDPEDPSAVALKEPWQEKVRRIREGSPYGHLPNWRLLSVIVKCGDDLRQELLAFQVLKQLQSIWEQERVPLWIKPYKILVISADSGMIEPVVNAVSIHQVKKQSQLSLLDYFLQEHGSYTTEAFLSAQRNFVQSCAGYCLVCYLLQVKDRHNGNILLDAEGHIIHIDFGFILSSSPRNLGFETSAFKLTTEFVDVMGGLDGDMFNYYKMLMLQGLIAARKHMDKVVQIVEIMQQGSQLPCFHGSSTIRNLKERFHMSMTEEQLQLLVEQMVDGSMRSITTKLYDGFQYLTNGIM

Experiments:
Experiment in all cases: number of time points (of 5) at which kinase-Nluc abundance scored as decreased, DMSO-normalised (count); higher = more persistent destabilization
Conditions in all cases: K562; 2-18 h
NTRK3 = NTRK3 (UniProt Q16288)
PAK4 = PAK4 (UniProt O96013)
PBK = PBK (UniProt Q96KB5)
PDGFRB = PDGFRB (UniProt P09619)
PDK1 = PDK1 (UniProt Q15118)
PDPK1 = PDPK1 (UniProt O15530)
PIK4CA = PIK4CA (UniProt P42356)
PIK4CB = PIK4CB (UniProt Q9UBF8)
PLK1 = PLK1 (UniProt P53350)
PRKAA1 = PRKAA1 (UniProt Q13131)

| Compound | number of time points (NTRK3) | number of time points (PAK4) | number of time points (PBK) | number of time points (PDGFRB) | number of time points (PDK1) | number of time points (PDPK1) | number of time points (PIK4CA) | number of time points (PIK4CB) | number of time points (PLK1) | number of time points (PRKAA1) |
| --- | --- | --- | --- | --- | --- | --- | --- | --- | --- | --- |
| O=C(Nc1nc2ccc(NC(=O)C34CC5CC(CC(C5)C3)C4)cc2s1)c1ccccc1 (10 µM) | 0 | 0 | 0 | 0 | 0 | 0 | 0 | 0 | 0 | 0 |
| C[C@@H]1CC(=O)c2c(ccc3c2C(=O)c2cccc(O)c2C3=O)C1 [Ochromycinone] (10 µM) | 0 | 0 | 0 | 0 | 0 | 0 | 0 | 0 | 0 | 0 |
| C=CC(=O)Nc1cccc(-c2cccc3cnc(Nc4ccc(N5CCN(CCO)CC5)c(F)c4F)nc23)c1 [Olafertinib] (2.5 µM) | 0 | 0 | 0 | 0 | 0 | 0 | 0 | 0 | 0 | 0 |
| COc1cc(N2CCOCC2)ccc1NC(=O)c1csc(-c2cccnc2)n1 [IRAK inhibitor 6] (10 µM) | 0 | 0 | 0 | 0 | 0 | 0 | 0 | 0 | 0 | 0 |
| CNc1nc(Nc2cn(C(C)(C)C#N)nc2C)ncc1C(F)(F)F (10 µM) | 0 | 0 | 0 | 0 | 0 | 0 | 0 | 0 | 0 | 0 |
| O=C1NC(=O)C(c2cnc3ccccn23)=C1c1cn2c3c(cc(F)cc13)CNCC2 [GSK-3 inhibitor 1] (2.5 µM) | 0 | 0 | 0 | 0 | 0 | 0 | 0 | 0 | 0 | 0 |
| CCN(CC)c1cc2oc(=O)c(-c3nc4ccccc4o3)cc2cc1C (2.5 µM) | 0 | 0 | 0 | 0 | 0 | 0 | 0 | 0 | 0 | 0 |
| NC1=NCCN1CC(=O)O [Cyclocreatine] (10 µM) | 0 | 0 | 0 | 0 | 0 | 0 | 0 | 0 | 0 | 0 |
| Oc1ccc(/C=C/c2cc(O)cc(F)c2)cc1 [Resveratrol analog 1] (10 µM) | 0 | 0 | 0 | 0 | 0 | 0 | 0 | 0 | 0 | 0 |
| CN1C(=O)[C@@H](NC(=O)c2n[nH]c(Cc3ccccc3)n2)COc2ccccc21 (10 µM) | 0 | 0 | 0 | 0 | 0 | 0 | 0 | 0 | 0 | 0 |
| C#Cc1cccc(Nc2ncnc3cc(OC)c(OCCCCCCC(=O)NO)cc23)c1 (2.5 µM) | 0 | 0 | 0 | 0 | 0 | 0 | 0 | 0 | 0 | 0 |
| COc1cc(N(C)CCN(C)C)c(N)cc1Nc1nccc(-c2cn(C)c3ccccc23)n1 [Mutated EGFR-IN-1] (10 µM) | 0 | 0 | 0 | 0 | 0 | 0 | 0 | 0 | 0 | 0 |
| CN1CC[C@@H](c2c(O)cc(O)c3c(=O)cc(-c4ccc(C(F)(F)F)cc4Cl)oc23)[C@@H]1CO [Voruciclib (hydrochloride)] (10 µM) | 0 | 0 | 0 | 0 | 0 | 0 | 0 | 0 | 0 | 0 |
| CC(C)=CCc1c(-c2ccc(O)cc2O)oc2c3c(cc(O)c2c1=O)OC(C)(C)C=C3 [Morusin] (2.5 µM) | 0 | 0 | 0 | 0 | 0 | 0 | 0 | 0 | 0 | 0 |
| C=CC(=O)N1CCC[C@H](n2c(=O)n(-c3ccc(Oc4ccccc4)cc3)c3c(N)ncnc32)C1 [ONO-4059 (analog)] (10 µM) | 0 | 0 | 0 | 0 | 0 | 0 | 0 | 0 | 0 | 0 |
| COc1ccc(-c2coc3cc(O)ccc3c2=O)cc1 [Formononetin] (10 µM) | 0 | 0 | 0 | 0 | 0 | 0 | 0 | 0 | 0 | 0 |
| COc1nn(C)cc1Nc1nccc(-c2c[nH]c3c(NC(=O)[C@@H](C)N4CCN(C)CC4)cccc23)n1 (10 µM) | 0 | 0 | 0 | 0 | 0 | 0 | 0 | 0 | 0 | 0 |
| C[C@@H]1COCCN1c1nc(-c2cnc(N)cc2C(F)F)nc(N2[C@H](C)COC[C@@H]2C)n1 (2.5 µM) | 3 | 0 | 0 | 0 | 0 | 2 | 1 | 0 | 0 | 0 |
| Cc1ccc(Oc2nc3cc(-c4ccc(-c5ccccc5)cc4)c(Cl)cc3[nH]2)cc1C(=O)O (10 µM) | 0 | 0 | 0 | 0 | 0 | 0 | 0 | 0 | 1 | 0 |
| O=C(Nc1nc2ccccc2[nH]1)c1cccc([N+](=O)[O-])c1 [IRAK-4 protein kinase inhibitor 2] (10 µM) | 0 | 0 | 0 | 0 | 0 | 0 | 0 | 0 | 0 | 0 |
| COc1ccc2cc3[n+](cc2c1OC)CCc1cc(O)c(O)cc1-3 [Demethyleneberberine] (10 µM) | 0 | 0 | 0 | 0 | 0 | 0 | 0 | 0 | 0 | 0 |
| O=C(N[C@@H](C1CC1)C(F)(F)F)c1cc(-c2cnn3cc(-c4ccc(F)cc4)cnc23)cs1 (10 µM) | 0 | 0 | 0 | 0 | 0 | 0 | 0 | 0 | 0 | 0 |
| Cc1ccc(NC(=O)c2ccc(CN(CCN(C)C)C(=O)c3cccnc3)cc2)cc1Nc1nccc(-c2cccnc2)n1 [PDGFRα kinase inhibitor 1] (10 µM) | 0 | 0 | 0 | 0 | 0 | 0 | 0 | 0 | 0 | 0 |

Laid out differently: results already given.
Compound	number of time points (NTRK3)	number of time points (PAK4)	number of time points (PBK)	number of time points (PDGFRB)	number of time points (PDK1)	number of time points (PDPK1)	number of time points (PIK4CA)	number of time points (PIK4CB)	number of time points (PLK1)	number of time points (PRKAA1)
COc1nn(C)cc1Nc1nccc(-c2c[nH]c3c(NC(=O)[C@@H](C)N4CCN(C)CC4)cccc23)n1 (10 µM)	0	0	0	0	0	0	0	0	0	0
C[C@@H]1COCCN1c1nc(-c2cnc(N)cc2C(F)F)nc(N2[C@H](C)COC[C@@H]2C)n1 (2.5 µM)	3	0	0	0	0	2	1	0	0	0
Cc1ccc(Oc2nc3cc(-c4ccc(-c5ccccc5)cc4)c(Cl)cc3[nH]2)cc1C(=O)O (10 µM)	0	0	0	0	0	0	0	0	1	0
O=C(Nc1nc2ccccc2[nH]1)c1cccc([N+](=O)[O-])c1 [IRAK-4 protein kinase inhibitor 2] (10 µM)	0	0	0	0	0	0	0	0	0	0
